Measured values reported in paper PMC8786475.
Results are given in words; binding and its absence hold for the method and conditions named. Binding seen in cells or lysates may run through a third protein. Some binding calls cover weakened binding; strength is not graded here.

Sequences of proteins named here, by UniProt entry; tags and fusion partners are left off.
UniProt P04818: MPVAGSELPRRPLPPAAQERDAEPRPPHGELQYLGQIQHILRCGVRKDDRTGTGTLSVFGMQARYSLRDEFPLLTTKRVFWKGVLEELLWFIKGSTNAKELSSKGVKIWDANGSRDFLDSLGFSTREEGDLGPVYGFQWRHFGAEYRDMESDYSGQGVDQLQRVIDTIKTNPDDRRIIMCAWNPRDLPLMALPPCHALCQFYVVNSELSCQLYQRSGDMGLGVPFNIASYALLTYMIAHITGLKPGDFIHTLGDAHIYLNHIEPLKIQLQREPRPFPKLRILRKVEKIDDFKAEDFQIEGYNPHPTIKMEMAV
UniProt P17096: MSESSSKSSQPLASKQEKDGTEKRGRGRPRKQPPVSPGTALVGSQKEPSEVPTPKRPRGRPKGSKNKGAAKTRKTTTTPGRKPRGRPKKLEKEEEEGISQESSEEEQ

Target: TYMS (human (endogenous in EPCs of sepsis patients)) (UniProt P04818)
Experiment: co-IP; cells lysed in IP lysis buffer on ice; supernatant split into whole protein, IgG and IP; antibodies overnight at 4°C; protein A/G agarose beads 2 h; western blot; precipitating antibody not told

For “High mobility group A1 (HMGA1) (from UniProt P17096 1-107)”, the binding was “binds”.
